Results deposited as PubChem BioAssay AID1259279 (Sanger Institute, 2017)

- Assay: 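Kinases that colorectal cancer cells need to survive, alone or with drugs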 (primary screen)
- System: LS180 human colorectal cancer cells
- Reagents: siRNA pool against human genes
- Conditions: anchor drug BYL719 at 1 µM, cetuximab at 5 µg/ml or trametinib at 10 nM, or DMSO vehicle only
- Detection: 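Cell viability versus a non-targeting pool, as a fraction and as a robust z-score from replicate means, plus a synergy score for each of three drugs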
- Direction: viability z-score, no drug: higher = more viable cells after knock-down; viability, no drug: higher = more viable cells
- Active means: 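Essential (active) calls need a no-drug viability z-score lower than -3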
- Meaning of the calls: active = essential (knock-down alone cuts viability); inactive = no change without drug
In all, the deposit lists 794 reagents; this is an unselected part. In the full data, 11 (1.4%) are marked active. 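Calls reflect knock-down alone in the vehicle arm, not drug synergy.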 A number with no mark means an inactive call. Viability is capped at 1. Further read-outs or replicates are left out here. Reagent sequences are not shown. Not stated in the record: the amount of reagent, the time to read-out.

| target | viability z-score, no drug | viability, no drug (fraction) |
| --- | --- | --- |
| IPMK (inositol polyphosphate multikinase) | 0.739 | 0.987 |
| CAMK4 (calcium/calmodulin dependent protein kinase IV) | -0.317 | 0.872 |
| HASPIN (histone H3 associated protein kinase) | -0.265 | 0.877 |
| TTK (TTK protein kinase) | 0.86 | 1 |
| EPHB2 (EPH receptor B2) | 0.84 | 0.998 |
| INSRR (insulin receptor related receptor) | 0.418 | 0.952 |
| MELK (maternal embryonic leucine zipper kinase) | 0.0478 | 0.911 |
| ULK4 (unc-51 like kinase 4) | -0.762 | 0.823 |
| PKIB (cAMP-dependent protein kinase inhibitor beta) | -0.176 | 0.887 |
| PRKAG1 (protein kinase AMP-activated non-catalytic subunit gamma 1) | 0.86 | 1 |
| RUNX1 (RUNX family transcription factor 1) | 0.86 | 1 |

2 entries from above, showing only “viability z-score, no drug”:
IPMK (inositol polyphosphate multikinase)	0.739
CAMK4 (calcium/calmodulin dependent protein kinase IV)	-0.317

The results go on.
| target | viability z-score, no drug | viability, no drug (fraction) |
| --- | --- | --- |
| NEK8 (NIMA related kinase 8) | -1.41 | 0.753 |
| MAP2K1 (mitogen-activated protein kinase kinase 1) | 0.86 | 1 |
| IDH2 (isocitrate dehydrogenase (NADP(+)) 2) | 0.568 | 0.968 |
| PHKG2 (phosphorylase kinase catalytic subunit gamma 2) | 0.86 | 1 |
| STYK1 (STY kinase 1) | -0.129 | 0.892 |
| STK32B (serine/threonine kinase 32B) | -0.38 | 0.865 |
| PRPS2 (phosphoribosyl pyrophosphate synthetase 2) | 0.86 | 1 |
| SMG1 | -1.09 | 0.787 |
| NTN4 (netrin 4) | 0.333 | 0.943 |
